# Laboratory results reported in article PMC7862700.
# Chains of the proteins cited; added tags and fusions are not shown. Lines headed by an entry give the natural chain unless they say otherwise; changes in a name come on top.
# UniProt O43186: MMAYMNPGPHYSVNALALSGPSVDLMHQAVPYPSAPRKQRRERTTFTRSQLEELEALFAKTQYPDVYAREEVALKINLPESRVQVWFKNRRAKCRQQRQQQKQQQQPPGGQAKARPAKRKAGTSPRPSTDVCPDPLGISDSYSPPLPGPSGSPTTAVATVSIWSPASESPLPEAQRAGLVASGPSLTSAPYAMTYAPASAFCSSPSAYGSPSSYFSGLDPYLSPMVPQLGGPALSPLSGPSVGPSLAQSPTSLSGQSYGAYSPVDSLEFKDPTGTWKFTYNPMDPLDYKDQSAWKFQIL
# The list shows a part of the results, in another mix than the full data. At the low end of the ranking, values are background and their order means little.
# Key:
# Test in all cases: DAPPL (digital affinity profiling via proximity ligation, sequencing)
# Details in all cases: 10 mM Tris-HCl pH 7.5, 50 mM NaCl, 1 mM DTT, 4% glycerol, room temperature, 30 min; GST-TFs on glutathione beads, 16-mer random dsDNA library, 0.1% …; high values mean tight binding; double strand, one strand shown; scale: fold enrichment (6-mer frequency, TF over GST control)
# FEV = biological target: T1, FEV (UniProt Q99581)
# T1 sequence: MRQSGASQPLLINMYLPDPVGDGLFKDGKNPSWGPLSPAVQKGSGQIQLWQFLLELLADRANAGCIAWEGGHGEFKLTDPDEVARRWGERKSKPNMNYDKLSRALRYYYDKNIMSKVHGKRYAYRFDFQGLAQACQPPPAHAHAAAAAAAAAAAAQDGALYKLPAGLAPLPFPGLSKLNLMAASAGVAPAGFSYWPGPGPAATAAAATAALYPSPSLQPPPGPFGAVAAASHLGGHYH
# CRX = CRX (UniProt O43186)
# ELF5 = biological target: T2, ELF5 (UniProt Q9UKW6-2)
# T2 sequence: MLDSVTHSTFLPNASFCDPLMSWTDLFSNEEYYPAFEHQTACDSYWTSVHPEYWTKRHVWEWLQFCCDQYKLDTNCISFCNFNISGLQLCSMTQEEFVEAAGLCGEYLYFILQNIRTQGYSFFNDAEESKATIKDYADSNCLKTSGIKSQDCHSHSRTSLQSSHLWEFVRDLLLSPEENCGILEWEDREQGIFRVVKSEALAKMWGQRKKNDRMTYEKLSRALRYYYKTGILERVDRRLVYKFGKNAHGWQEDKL
Sequence,binding signal (FEV),binding signal (CRX),binding signal (ELF5)
TCAACA,1.05,0.99,
TAAATT,1.25,1.76,
GTTGCG,0.978,0.736,
GGAAAT,4,0.929,
TGGTAA,1.15,1.51,
ACCCAT,1.17,1.06,
CGGTCT,1.3,0.821,
TGTAAC,1.23,0.995,
TGCCAC,1.32,0.841,
TGTACA,1.24,0.905,
CCTCGC,1.37,1.16,
ATGGCG,0.968,0.894,
GCGCCT,1.13,0.928,
TGTGGT,0.968,0.819,
CGCTGC,1.14,0.824,
AGTCCT,0.987,0.953,
GCTAAG,0.945,1.75,
CATGGG,0.958,0.896,
GCACAA,1.1,0.882,
CCGCGC,1.11,0.88,
TGTGCG,0.971,0.821,

# Part of the list above with just binding signal (FEV):
Sequence | binding signal (FEV)
GTTGCG | 0.978
GCGCCT | 1.13
GCTAAG | 0.945
CATGGG | 0.958

# Continued.

Sequence,binding signal (FEV),binding signal (CRX),binding signal (ELF5)
TCGCGG,1.02,0.92,
GTGTCT,0.944,0.784,
CGCTCG,1.08,0.84,
GTGTCC,1.1,0.639,
ACTGCA,1.18,0.836,
CCACAT,1.27,0.897,
AGTTGC,0.982,0.763,
AGGTAA,0.939,1.14,
GCGAAT,0.959,1.08,
CGTCAA,1.08,0.873,
CAAATG,1.11,0.98,
TGATTA,0.953,2.23,
CACTTT,1.18,1.14,
GGTTAT,0.977,1.04,
GTGTTC,1.08,0.794,
ATACGA,1.16,1.17,
GGATAT,3.83,1.09,
CATTGT,1.09,0.864,
TGTCAA,0.947,0.837,
TTAGGT,0.936,1.82,
AGTGTC,0.958,0.711,

Sequence,binding signal (FEV),binding signal (CRX),binding signal (ELF5)
GACTAC,1.08,0.916,
CTGCAG,1.1,0.894,
CCAACT,1.27,1.01,
CTGGCT,1.16,1.21,
AAGTGC,1.32,0.994,
GATGCG,1.15,0.854,
CGTTCT,,,1.44
TTCACG,,,1.38
TCAAGT,,,0.968
GAACTT,,,1.96
CCCTGA,,,1.06
TAATTC,,,1.41
GTTTGC,0.961,0.857,
AGTAAC,0.94,0.796,
ACCCCT,1.08,0.943,
AGTAAT,1.05,1.61,
CCCGTA,,,1.21
TCCACG,0.994,0.945,
GCTACG,1.16,0.92,
TGAGCT,,,0.922
